# Values from PubChem BioAssay AID1259308 (NCATS, 2017)
# Purpose: 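Genes whose loss raises luciferase production in HEK293 cells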 (primary screen)
# System: human HEK293 embryonic kidney cells stably expressing firefly luciferase (HEK-CMV-Luc2-Hygro)
# Reagents: single siRNA against human genes, 0.8 pmol siRNA per well
# Time to read-out: 72 h
# Read-out: 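Luciferase light (ONE-Glo) measured on one replicate plate set and viability (CellTiter-Glo) on the other, scaled to a negative control siRNA, with robust z-scores and luciferase per cell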
# Direction: total luciferase, z-score and total luciferase, % of control: higher = more reporter protein produced; luciferase per cell, z-score: higher = more reporter output per viable cell
# Rule for the call: 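An siRNA counts as active if its total luciferase robust z-score exceeds 3; genes with two or more such siRNAs out of three were retested with fresh siRNAs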
# Calls: active = raised luciferase; inactive = no rise
# The deposit covers about 59,000 reagents; this is an unselected part. About 1,510 of them (2.6%) were called active. 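Calls use total luciferase alone and ignore viability, so some active siRNAs may act by altering cell number.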 Reagents against one gene are numbered here. Not all columns of the deposit are shown. Reagent sequences are not shown.
gene,reagent,"total luciferase, z-score","total luciferase, % of control","luciferase per cell, z-score",Outcome
STYXL1,1,2.22,126,3.65,inactive
STYXL1,2,-0.658,68.8,-1,inactive
STYXL1,3,-0.405,73.8,-1.08,inactive
NOG,1,-0.0552,80.8,-0.308,inactive
NOG,2,-1.09,60.1,-1.31,inactive
NOG,3,1.44,111,0.589,inactive
BCAS2,1,0.802,97.8,0.419,inactive
BCAS2,2,1.18,105,1.22,inactive
BCAS2,3,2,122,1.7,inactive
APH1A,1,-2.09,40.3,-2.78,inactive
APH1A,2,-1.58,50.5,-0.751,inactive
APH1A,3,-1.67,48.6,-1.69,inactive
BMAL1,1,0.204,85.9,-0.145,inactive
BMAL1,2,0.649,94.8,0.921,inactive
BMAL1,3,1.91,120,1.47,inactive
ESPN,1,0.522,92.3,1.33,inactive
ESPN,2,-0.492,72.1,-0.444,inactive
ESPN,3,-0.694,68.1,-1.03,inactive
CLCN7,1,0.929,100,0.772,inactive
CLCN7,2,0.131,84.5,-0.753,inactive
CLCN7,3,0.116,84.2,-0.427,inactive
SLC1A1,1,-0.534,71.3,-0.0934,inactive
SLC1A1,2,0.671,95.2,0.592,inactive
SLC1A1,3,-0.386,74.2,-0.684,inactive
ST8SIA4,1,0.421,90.3,0.27,inactive
ST8SIA4,2,1.27,107,1.87,inactive
ST8SIA4,3,0.958,101,0.566,inactive
CCL2,1,0.143,84.7,-0.288,inactive
CCL2,2,1.39,110,1.44,inactive
CCL2,3,0.0359,82.6,-0.105,inactive
ZFX,1,0.116,84.2,0.184,inactive
ZFX,2,0.699,95.8,0.517,inactive
ZFX,3,-0.24,77.1,-0.278,inactive
ERCC8,1,0.494,91.7,0.943,inactive
ERCC8,2,3.56,153,2.21,active
ERCC8,3,-0.902,63.9,-1.01,inactive
ASPHD2,1,-0.461,72.7,0.133,inactive
ASPHD2,2,-0.6,70,-0.714,inactive
ASPHD2,3,-1.56,50.8,-1.69,inactive
ISG20L2,1,-0.729,67.4,1.33,inactive
ISG20L2,2,-0.275,76.4,0.638,inactive
ISG20L2,3,-1.3,56,-1.27,inactive
F8,1,0.459,91,0.171,inactive
F8,2,2.67,135,1.18,inactive
F8,3,-0.483,72.3,-0.933,inactive

The list goes on; the last 5 above are carried over.
gene,reagent,"total luciferase, z-score","total luciferase, % of control","luciferase per cell, z-score",Outcome
ISG20L2,2,-0.275,76.4,0.638,inactive
ISG20L2,3,-1.3,56,-1.27,inactive
F8,1,0.459,91,0.171,inactive
F8,2,2.67,135,1.18,inactive
F8,3,-0.483,72.3,-0.933,inactive
DIP2C,1,0.442,90.7,0.0162,inactive
DIP2C,2,0.162,85.1,-0.489,inactive
DIP2C,3,-0.775,66.5,-0.0495,inactive
SRP9P1,1,0.0116,82.1,-0.567,inactive
SRP9P1,2,-0.062,80.7,0.00989,inactive
SRP9P1,3,0.464,91.1,-0.296,inactive
PAF1,1,0.0464,82.8,0.85,inactive
PAF1,2,-0.125,79.4,0.384,inactive
PAF1,3,-0.862,64.7,0.21,inactive
CHAD,1,-1.15,59,-1.63,inactive
CHAD,2,-0.259,76.7,-0.196,inactive
CHAD,3,0.844,98.7,0.51,inactive
PCDHGA4,1,0.684,95.5,0.341,inactive
PCDHGA4,2,-0.33,75.3,0.133,inactive
PCDHGA4,3,1.37,109,0.848,inactive
EXOSC9,1,-1.37,54.7,-0.582,inactive
EXOSC9,2,-2.12,39.7,-1.2,inactive
EXOSC9,3,1.5,112,1.03,inactive
ZNF528,1,0.886,99.5,0.694,inactive
ZNF528,2,0.196,85.8,0.552,inactive
ZNF528,3,0.643,94.7,0.487,inactive
NPR1,1,0.088,83.6,0.503,inactive
NPR1,2,1.1,104,-0.0209,inactive
NPR1,3,1.01,102,1.61,inactive
EVC2,1,-0.672,68.5,-0.609,inactive
EVC2,2,0.228,86.4,0.748,inactive
EVC2,3,-0.719,67.6,-1.09,inactive
H2AC11,1,0.164,85.2,-0.673,inactive
H2AC11,2,-2.31,35.9,-3.34,inactive
H2AC11,3,-1.14,59.3,-1.59,inactive
